Results are given in words; binding and its absence hold for the method and conditions named. Binding seen in cells or lysates may run through a third protein.
Biological target: T1, Twist1 protein (TW1), endogenous in mouse colon neutrophils (mouse (endogenous in colon neutrophils of BALB/c mice)) (UniProt P26687)
T1 sequence: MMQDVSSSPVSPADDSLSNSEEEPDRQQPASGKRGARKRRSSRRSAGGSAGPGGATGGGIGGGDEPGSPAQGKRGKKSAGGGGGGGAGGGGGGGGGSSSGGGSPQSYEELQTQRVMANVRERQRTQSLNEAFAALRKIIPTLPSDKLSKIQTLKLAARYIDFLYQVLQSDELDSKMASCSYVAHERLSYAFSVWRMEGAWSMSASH
Test: co-IP; protein extracts of colon neutrophils of mice treated with hypoxia for one week; Western blot

binding: no binding
Substance: glucocorticoid receptor β (GRβ), endogenous in mouse colon neutrophils
